Measurements as given in patent publication US20100324017A1, “ACYLGUANIDINE DERIVATIVE” (priority 2007, published 2010).
For at least one compound, name, drawing or mass did not settle the structure.

System: MK-801-induced overactivity
Experiment: MK-801-induced overactivity in mice, kinetic momentum by infrared sensor
Type: in vivo
Settings: mouse, dose 0.3 mg/kg; MK-801 0.3 mg/kg i.p.
Method: Evaluation of Various Drugs Relative to a Drug for Increasing the Kinetic Momentum of Mice (Methane Phetamine, MK-801) (Method for Measuring a Kinetic Momentum by Discharge of an Infrared Ray)
The effect of improving the positive symptoms and the negative symptoms of schizophrenia by the compound (I) was evaluated by measuring the kinetic momentum that had been […] with administration of the compound in a model causing the symptoms by methane phetamine (which is hereinafter simply referred to as MAP) and MK-801.
Species: Male ICR mouse/number of animals (number of animals per group): 8 to 12 animals per group
The animal was left in a laboratory for 1 hour or longer to be acclimated to the environment, and the animal was taken from the feeding cage, orally administered with a compound to be tested, and then returned to the feeding cage. After 30 minutes, it was put into a cage for measurement, and the kinetic momentum of just the compound to be tested was measured. Further, after 30 minutes, the animal was taken out, and intraperitoneally administered with a drug for increasing kinetic momentum (MAP; 1 mg/kg or MK-801; 0.3 mg/kg, all dissolved in physiological saline), and its kinetic momentum was measured for a certain time (60 minutes) using a device for measuring the kinetic momentum by means of an infrared ray sensor (CompACT AMS, Muromachi Kikai Co., Ltd.). […]

## CN1CCN(C2=Nc3cc(Cl)ccc3Nc3ccccc32)CC1 [clozapine, reference compound]
  inhibition of MK-801-induced overactivity: significantly inhibited
